Patent publication US10716787B2, “Combinations” (ASTEX THERAPEUTICS LTD, priority 2014, dated 2020)

Tests used:
parental NCI-H1581 cells = experiment: Alamar blue proliferation assay, parental NCI-H1581 cells; format: cell-based; details: DMSO taken as 100%
Protocol: (§1) This was for instance observed by a plateau in the proliferation curve around ˜10% of DMSO control (value observed in the assay for DMSO is taken as 100%, and values observed for the dose treatments with compound are calculated as % of 100% DMSO).
(§2) The insensitive cells were isolated and profiled with the aim to determine the active signaling pathways that act as drivers for their survival and/or proliferation. Therefore, NCI-H1581 cells were plated onto 10 cm Collagen I coated plates and placed in an incubator at 37° C., 5% CO2. The cells were grown in growth medium (see below), for the parental cells with or without DMSO control, or in growth medium supplemented with high dose of compound A (1 microM final concentration of compound A in the medium, compound A was added as a sample diluted from a stock solution in DMSO), for the resistant cells, over a prolonged period of time. During the time of growing out the compound insensitive cells, medium supplemented with compound A [1 microM], was changed twice weekly. […]
(§3) Compound/medium plates were placed on a shaker for 10 minutes and then 20 μl of compound in medium was added to the cells (10× dilution). Cells were incubated at 37° C. and 5% CO2 for 4 days until alamarBlue® readout.
After 4 days of incubation with compound: Add 40 μl of alamarBlue® ready to use mix to each well. […]

[1] = tested on: most sensitive cancer cell lines; experiment: Alamar blue cell based proliferation assay, most sensitive cancer cell lines
Protocol: as §1
Cells were seeded in 180 μl of medium at optimized cell densities in black 96 well plates with clear flat bottom. The outer wells were filled with 180 μl of medium. Cells were incubated for 24 hours at 37° C. and 5% CO2.
Next day compound dilutions were prepared in a 96 well plate with round bottom (Corning #3365). A 50× dilution of the compound was prepared in medium, 4 μl of compound stock in 196 μl of medium in a 96 well plate (Corning #3585).
as §3
After 4 days of incubation with compound: Add 40 μl of alamarBlue® ready to use mix to each well. Incubate plates at 37° C. and 5% CO2. Measure plates after 4 or 6 hours of incubation (depends on cell line). Shake plates and measure RFU at ex.: 544 nm and em.: 590 nm
The alamarBlue® Assay incorporates a fluorometric/colorimetric growth indicator based on detection of metabolic activity. […]

Met oncogene = experiment: Microarray gene expression profiling of resistant versus parental NCI-H1581 cells; format: cell-based; details: 1 microM, 1 day, 1 week and 2 weeks
Protocol: as §2, with “weekly. In the case of the parental cells with or without DMSO control, when the cells reached the confluence close to 100% they were trypsinized and re-plated back on the plate. In the compound treated plates outgrowth of resistant clones were observed. After about 3 weeks from the initial treatment, cells were taken out of the plate by trypsinization and passaged on new plate for further expanding. Resistant cells, same as the parental cells were passaged twice weekly, but the medium of the resistant cells was always supplemented with compound A [1 microM]. (test 1)” for “weekly.”

NCI-H1581 cells = experiment: Incucyte proliferation (confluence over time), prolonged treatment of NCI-H1581 cells; format: cell-based; details: 1 microM each agent
Protocol: FIG. 2: Incucyte graph (% confluence over time) representing the proliferation of NCI-H1581 cells treated with single agents (compound A [1 microM] or compound D [1 microM]) or combination of both compound A [1 microM] and compound D [1 microM], and DMSO as vehicle control.
as §2, with “weekly. In the case of the parental cells with or without DMSO control, when the cells reached the confluence close to 100% they were trypsinized and re-plated back on the plate. In the compound treated plates outgrowth of resistant clones were observed.” for “weekly.”

H1581^Met(+) cells = experiment: Incucyte live cell imaging proliferation, sorted H1581 Met(+) cells; format: cell-based; design: dose or concentration left out as unconfirmed; details: four days
Protocol: FIG. 4. Incucyte graph (% confluence over time) representing the proliferation of NCI-H1581 cells and NCI-H1581^Met(+) cells treated with compound A [0.1 microM] or a combination of compound A [0.1 microM] and compound D [1 microM], and DMSO as vehicle control.
Inhibition of growth of H1581^MET(+) cells by combination of FGFR and MET inhibitors. Parental, unsorted H1581 cells, and sorted H1581^Met(+) cells, subpopulation of H1581 cells that have high Met expression, were plated at 75000 cells per well in 24 well plate. One day later, cells were treated with compound A (0.1 mM) or combination of compound A (0.1 mM) and compound D (1 mM), or DMSO serving as a vehicle and the cell proliferation was assessed by measuring cell confluence over a period of four days using Incucyte live cell imaging. Images were acquired every two hours. Proliferation of cells was presented as the mean of percentage of confluence±SD (n=2).

COc1cc(OC)cc(N(CCNC(C)C)c2ccc3ncc(-c4cnn(C)c4)nc3c2)c1 [compound A, N-(3,5-dimethoxyphenyl)-N′-(1-methylethyl)-N-[3-(1-methyl-1H-pyrazol-4-yl)quinoxalin-6-yl]ethane-1,2-diamine]
plateau in the proliferation curve (parental NCI-H1581 cells): ~10 % of DMSO control | IC50 [1]: < 10 nM | Met oncogene expression (microarray) (Met oncogene): upregulated in a time dependent manner | proliferation (confluence of the cells over time) (NCI-H1581 cells): initially blocked the proliferation | cell growth and proliferation (confluence) (H1581^Met(+) cells): minor sensitivity
